# Test results reported in paper PMC6925144, “A prospective compound screening contest identified broader inhibitors for Sirtuin 1” (Scientific Reports, 2019).
# By UniProt entry, the sequences of proteins in these tests, tags left out. Residues count along the entry.
# UniProt Q96EB6, 2-747 limits assumed: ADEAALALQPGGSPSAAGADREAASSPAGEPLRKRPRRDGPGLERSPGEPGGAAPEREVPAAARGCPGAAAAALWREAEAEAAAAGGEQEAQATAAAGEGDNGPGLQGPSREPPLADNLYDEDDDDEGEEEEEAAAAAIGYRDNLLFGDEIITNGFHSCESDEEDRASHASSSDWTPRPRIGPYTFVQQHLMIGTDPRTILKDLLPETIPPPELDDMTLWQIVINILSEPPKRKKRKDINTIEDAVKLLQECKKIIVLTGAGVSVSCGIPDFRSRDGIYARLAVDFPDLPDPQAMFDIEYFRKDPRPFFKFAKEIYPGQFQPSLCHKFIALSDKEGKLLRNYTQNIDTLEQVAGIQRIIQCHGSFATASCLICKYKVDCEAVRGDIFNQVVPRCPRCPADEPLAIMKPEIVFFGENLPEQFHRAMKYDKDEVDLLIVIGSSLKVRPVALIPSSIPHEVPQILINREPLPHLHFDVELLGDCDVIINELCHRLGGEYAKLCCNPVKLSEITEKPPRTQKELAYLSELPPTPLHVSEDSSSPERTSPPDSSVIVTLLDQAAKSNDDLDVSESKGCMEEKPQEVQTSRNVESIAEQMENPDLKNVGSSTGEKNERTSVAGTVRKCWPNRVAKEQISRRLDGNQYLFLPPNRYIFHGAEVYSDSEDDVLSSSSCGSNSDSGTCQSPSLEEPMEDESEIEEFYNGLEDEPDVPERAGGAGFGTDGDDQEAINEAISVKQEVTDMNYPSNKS
# Whole data set: some 3,200 compounds, median “TSA(without NAD+) / Primary screening (TSA) / delta Tm (K)” near -0.07, cut for the highest 2% near 0.37. This is one part of the list.
# Biological target: NAD-dependent deacetylase Sirtuin 1 (human, UniProt Q96EB6)
# Test: primary screen, delta tm
# Parameters: single well (n = 1)
# Settings: 10 µM
# Procedure, shortened: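 Thermal shift of Sirtuin 1 measured without NAD+, compound at 10 µM (n = 1); value is ΔTm, with hits defined as ΔTm > 0.45 K or < −1.5 K. Hits retested at 5, 10, 20 µM (n = 4) and counterscreened on bovine carbonic anhydrase and ABL1 SH2 domain.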
row,SMILES,TSA(without NAD+) / Primary screening (TSA) / delta Tm (K)
1,CC1CC(C)n2nccc2N1C(=O)Cc1csc(-c2ccc(C(F)(F)F)cc2)n1 (stereo not drawn),0.03
2,O=C(O)CN1CCN(Cc2ccccc2)C2(CCCCC2)C1,0.03
3,CN1CCN(c2ncnc3ccsc23)CC1,-0.03
4,NC(=O)C1CCN(C(=O)c2c[nH]c3cc(Br)c(Br)cc23)CC1,-0.01
5,COS(=O)(=O)OC,-0.01
6,COc1ccc(SC(C)C(N)=O)cc1 (stereo not drawn),-0.12
7,COc1cc(CN(C)C(=O)c2ccc(-c3ccc(C(C)=O)cc3)o2)ccc1OCc1ccccc1,-0.02
8,N#CCn1c(COC(=O)CO/N=C2\c3ccccc3C3C=CC=CC23)nc2ccccc2c1=O (stereo not drawn),-0.21
9,O=C(OCC(=O)C12CC3CC(CC(C3)C1)C2)[C@H](Cc1ccccc1)N1C(=O)c2ccccc2C1=O,-0.15
10,O=C(Nc1ccc(Cl)cn1)C1CCN(c2nc(C3CC3)nc3sc4c(c23)CCCC4)CC1,-0.04
11,COc1ccc(OC)c(CN(CC(=O)Nc2ccc(C(N)=O)cc2)C2CC2)c1,0.07
12,Cc1ccc(N(CC(=O)NC23CC4CC(CC(C4)C2)C3)S(=O)(=O)c2ccc3c(c2)OCCO3)cc1,-0.08
13,Cc1ccccc1NC(=O)COC(=O)c1ccccc1SCC(=O)NC12CC3CC(CC(C3)C1)C2,-0.14
14,Cc1cc(/C=N/NC(C)(C)C)c(C)n1-c1cc(S(=O)(=O)N2CCOCC2)ccc1N1CCCC1,0.17
15,O=C(c1ccc(O)cc1)C1CCN(c2ncnc3c2oc2ccccc23)CC1,0.22
16,CC(=O)N1CCCc2cc(S(=O)(=O)Nc3cccc4c3CCCC4)ccc21,-0.02
17,CCCCOC(=O)c1ccc(NC(=O)COC(=O)CNC(=O)C23CC4CC(CC(C4)C2)C3)cc1,0.48
18,Cc1ccc(-c2nnc(S)n2CCC(=O)N2CCN(Cc3nc(-c4cccs4)no3)CC2)cc1,0.07
19,O=C(Nc1cccc(S(=O)(=O)NCc2ccco2)c1)c1cn(-c2ccccc2)nc1-c1ccccc1,0.27
20,CC(N)CF (stereo not drawn),-0.13
21,CCOC(=O)Nc1cccc(C(=O)NCc2ccc3c(c2)OCO3)c1,0.03
22,O=C(N1CCc2ccccc2CC1)N1CC2CCCN2Cc2ccccc21 (stereo not drawn),-0.03
23,Cc1ccc(N(C)S(=O)(=O)c2cccc(C(=O)Nc3ccc(C(N)=O)cc3)c2)cc1,0.46
24,C/C(=N/Nc1cc(C(=O)O)ccc1Cl)c1ccc2ccccc2c1,-0.01

# From compound 11 as far as 12, copied from above:
row,SMILES,TSA(without NAD+) / Primary screening (TSA) / delta Tm (K)
11,COc1ccc(OC)c(CN(CC(=O)Nc2ccc(C(N)=O)cc2)C2CC2)c1,0.07
12,Cc1ccc(N(CC(=O)NC23CC4CC(CC(C4)C2)C3)S(=O)(=O)c2ccc3c(c2)OCCO3)cc1,-0.08
